Laboratory results published in patent US20120219942, “Methods Employing McrA to Detect 5-Methyl Cytosine” (Brookhaven Science Associates, LLC, published 2012).
A negative result means that nothing was seen under these conditions. Where a protein sequence is shown, tags need not be part of it. A weaker result is weaker than the reference pair of the same experiment. For at least one entry, the source does not settle the construct or the ends of the probe.

Target: T1, McrA (rMcrA-S, C-terminal StrepII) (Escherichia coli) (UniProt P24200)
T1 sequence (looked up, limits assumed): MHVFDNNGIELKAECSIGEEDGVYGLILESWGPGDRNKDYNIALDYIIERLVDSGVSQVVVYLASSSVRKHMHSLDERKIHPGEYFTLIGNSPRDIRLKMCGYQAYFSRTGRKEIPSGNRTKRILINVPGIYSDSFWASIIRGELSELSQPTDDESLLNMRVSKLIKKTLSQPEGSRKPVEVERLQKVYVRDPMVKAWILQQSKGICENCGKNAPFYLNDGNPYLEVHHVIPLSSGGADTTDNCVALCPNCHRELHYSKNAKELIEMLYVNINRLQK
Assay: EMSA
Conditions: purified recombinant protein, protein details: C-terminal StrepII SAWSHPQFEK

**Q.** Does “GCCTTCAGCGCCGGCGGATCCAGT (double strand) [m5C/I cassette]” bind (5mC at position 12 of top strand only, inosine (n) in bottom strand opposite m5C [top 12 5mC, bottom 13 inosine (parent base G)], I opposite m5C, letters built from the parent sequence and the stated change, variant of hemimethylated Cm5CGG cassette (m5C/G))?
**A.** binds

**Q.** Does “GCCTTCAGCGCCGGCGGATCCAGT (double strand) [m5CGG three-fourth HpaII cassette]” bind (5mC at position 15 of top strand and 9 of bottom strand, bound (Yes in table), evident at higher protein to DNA ratios)?
**A.** binds more weakly

**Q.** Does “GCCTTCAGCGCCGGCGGATCCAGT (double strand) [unmethylated cassette]” bind (unmethylated control)?
**A.** no binding
